Results deposited as PubChem BioAssay AID1224830 (NIAID, 2016).
Shown is one part, drawn at random, of about 18,000 reagents tested. About 2,900 of all reagents (16%) count as active. 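Calls are made per well; low scores hint the gene aids the LPS response, high scores that it dampens it.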 Repeated entries: four replicate wells of each siRNA pool.

Assay: 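Genes whose knock-down alters the TNF-alpha reporter response to LPS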 (primary screen)
Cells: human THP-1 monocytic leukaemia cells, TNF dual-luciferase reporter clone, PMA-differentiated to macrophage-like cells
Knock-down reagent: siRNA pool against human genes, 50 nM
Time to read-out: LPS for 4 h, given about 3 days after siRNA transfection
Treatment: bacterial LPS (TLR4 ligand), 10 ng/ml
Read-out: 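TNF firefly reporter luminescence divided by renilla, normalised to the plate median, then turned into a robust z-score for each replicate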
Direction: TNF reporter robust z-score: higher = stronger TNF reporter response to LPS
Call rule: 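Each well counts as active if its z-score is over 2.8 or under -1.5; controls are left without a call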

NT5C1A gave TNF reporter robust z-score -0.73; inactive.
Knock-down of NT5C1A resulted in: TNF reporter robust z-score 0.07; inactive.
NT5C1A gave TNF reporter robust z-score -1.04; inactive.
Silencing of NT5C1A came out at: TNF reporter robust z-score 0.73; inactive.
With knock-down of L3MBTL4, the screen gave TNF reporter robust z-score 0.04; inactive.
With knock-down of L3MBTL4, the record shows TNF reporter robust z-score 0.57; inactive.
Silencing of L3MBTL4 came out at: TNF reporter robust z-score 0.11; inactive.
Against L3MBTL4 the deposit lists TNF reporter robust z-score 0.34; inactive.
Against GNB5, the entry reads TNF reporter robust z-score 0.84; inactive.
GNB5 showed TNF reporter robust z-score 0.15; inactive.
After knock-down of GNB5, the record shows TNF reporter robust z-score 1.67; inactive.
Against GNB5 the deposit lists TNF reporter robust z-score 2.41; inactive.
With knock-down of ANGPT1 the results were TNF reporter robust z-score 0.09; inactive.
After knock-down of ANGPT1, the record shows TNF reporter robust z-score 1.04; inactive.
With knock-down of ANGPT1, the record shows TNF reporter robust z-score 0.45; inactive.
Knock-down of ANGPT1 gave: TNF reporter robust z-score 1.03; inactive.
Against SFTPC, the entry reads TNF reporter robust z-score -0.7; inactive.
With knock-down of SFTPC, the record shows TNF reporter robust z-score -1.15; inactive.
SFTPC showed TNF reporter robust z-score -0.97; inactive.
For SFTPC the deposit lists TNF reporter robust z-score -0.21; inactive.
ARG1 showed TNF reporter robust z-score 0.13; inactive.
ARG1 showed TNF reporter robust z-score 1.96; inactive.
For ARG1, the entry reads TNF reporter robust z-score 0.25; inactive.
Depletion of ARG1 gave: TNF reporter robust z-score 1.2; inactive.

Part of the list above, set out differently:
{"gene symbol":"ANGPT1","TNF reporter robust z-score":0.09,"outcome":"inactive"}
{"gene symbol":"ANGPT1","TNF reporter robust z-score":1.04,"outcome":"inactive"}

Continued:
Depletion of AFG2B resulted in: TNF reporter robust z-score -0.33; inactive.
Knock-down of AFG2B came out at: TNF reporter robust z-score -0.32; inactive.
AFG2B scored TNF reporter robust z-score 0.37; inactive.
AFG2B scored TNF reporter robust z-score 0.34; inactive.
GSC showed TNF reporter robust z-score -0.65; inactive.
GSC gave TNF reporter robust z-score 1.01; inactive.
For GSC, the values are TNF reporter robust z-score 0.48; inactive.
GSC gave TNF reporter robust z-score 0.49; inactive.
STARD7-AS1 gave TNF reporter robust z-score 0.1; inactive.
Against STARD7-AS1 the deposit lists TNF reporter robust z-score -0.01; inactive.
Against STARD7-AS1 the deposit lists TNF reporter robust z-score 0.44; inactive.
For STARD7-AS1 the deposit lists TNF reporter robust z-score -0.55; inactive.
SLC35B2 gave TNF reporter robust z-score 0.72; inactive.
Depletion of SLC35B2 gave: TNF reporter robust z-score 1.69; inactive.
Knock-down of SLC35B2 gave: TNF reporter robust z-score 1.78; inactive.
For SLC35B2 the deposit lists TNF reporter robust z-score 1.68; inactive.
For FBXO47 the deposit lists TNF reporter robust z-score -1.05; inactive.
Knock-down of FBXO47 resulted in: TNF reporter robust z-score 2.6; inactive.
Knock-down of FBXO47 resulted in: TNF reporter robust z-score 1.96; inactive.
For FBXO47, the values are TNF reporter robust z-score 2.63; inactive.
For SLC16A12 the deposit lists TNF reporter robust z-score -1.14; inactive.
SLC16A12 showed TNF reporter robust z-score -0.83; inactive.
Silencing of SLC16A12 came out at: TNF reporter robust z-score -0.58; inactive.
Depletion of SLC16A12 gave: TNF reporter robust z-score -0.92; inactive.
For STX3, the entry reads TNF reporter robust z-score -0.44; inactive.
Against STX3 the deposit lists TNF reporter robust z-score -0.1; inactive.
STX3 showed TNF reporter robust z-score 0.56; inactive.
With knock-down of STX3, the record shows TNF reporter robust z-score -0.61; inactive.
Silencing of CCDC6 resulted in: TNF reporter robust z-score -0.92; inactive.
For CCDC6, the entry reads TNF reporter robust z-score -0.54; inactive.
With knock-down of CCDC6, the screen gave TNF reporter robust z-score -0.17; inactive.
CCDC6 showed TNF reporter robust z-score 0.22; inactive.
After knock-down of FAP the results were TNF reporter robust z-score 0.75; inactive.
For FAP, the values are TNF reporter robust z-score 0.04; inactive.
FAP gave TNF reporter robust z-score 1.09; inactive.
Silencing of FAP gave: TNF reporter robust z-score 0.19; inactive.
